For assay [1], the target named is N-terminal FLAG-tagged procaspase-1 (C285A) (FLAG-procaspase-1 (C285A)) (Homo sapiens (Human)) (UniProt P29466). The assay can be described thus: co-immunoprecipitation from lysate of co-transfected cells, Western blotting (FIG. 1-B).
Assay [2] shares this target. The assay can be described thus: co-immunoprecipitation from lysate of co-transfected HEK293T cells (anti-FLAG M2 or anti-myc agarose), Western blotting. On the technique in general: Immunoblotting shows a protein as a band on a membrane.
Assay [3] shares this target. Put plainly: co-immunoprecipitation with anti-FLAG antibody, Western blotting with anti-myc antibody (FIG. 2-A).
For assay [4] the target is unchanged. Put plainly: co-immunoprecipitation with anti-FLAG M2 agarose from HEK293T lysate, Western blotting with anti-myc antibody.

Chains of the proteins cited; added tags and fusions are not shown. Lines headed by an entry give the natural chain unless they say otherwise; changes in a name come on top.
UniProt P29466: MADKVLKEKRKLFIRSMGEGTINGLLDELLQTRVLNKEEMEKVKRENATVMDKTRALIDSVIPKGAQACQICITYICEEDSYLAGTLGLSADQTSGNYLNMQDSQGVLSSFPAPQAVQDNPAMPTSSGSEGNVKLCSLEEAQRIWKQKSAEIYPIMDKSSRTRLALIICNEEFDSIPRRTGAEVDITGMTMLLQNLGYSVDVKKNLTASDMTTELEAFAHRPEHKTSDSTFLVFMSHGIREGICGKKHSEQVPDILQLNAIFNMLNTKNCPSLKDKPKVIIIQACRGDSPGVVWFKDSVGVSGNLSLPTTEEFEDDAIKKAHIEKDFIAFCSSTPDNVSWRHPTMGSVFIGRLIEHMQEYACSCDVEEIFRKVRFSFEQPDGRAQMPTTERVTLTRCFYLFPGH
UniProt Q9HC29: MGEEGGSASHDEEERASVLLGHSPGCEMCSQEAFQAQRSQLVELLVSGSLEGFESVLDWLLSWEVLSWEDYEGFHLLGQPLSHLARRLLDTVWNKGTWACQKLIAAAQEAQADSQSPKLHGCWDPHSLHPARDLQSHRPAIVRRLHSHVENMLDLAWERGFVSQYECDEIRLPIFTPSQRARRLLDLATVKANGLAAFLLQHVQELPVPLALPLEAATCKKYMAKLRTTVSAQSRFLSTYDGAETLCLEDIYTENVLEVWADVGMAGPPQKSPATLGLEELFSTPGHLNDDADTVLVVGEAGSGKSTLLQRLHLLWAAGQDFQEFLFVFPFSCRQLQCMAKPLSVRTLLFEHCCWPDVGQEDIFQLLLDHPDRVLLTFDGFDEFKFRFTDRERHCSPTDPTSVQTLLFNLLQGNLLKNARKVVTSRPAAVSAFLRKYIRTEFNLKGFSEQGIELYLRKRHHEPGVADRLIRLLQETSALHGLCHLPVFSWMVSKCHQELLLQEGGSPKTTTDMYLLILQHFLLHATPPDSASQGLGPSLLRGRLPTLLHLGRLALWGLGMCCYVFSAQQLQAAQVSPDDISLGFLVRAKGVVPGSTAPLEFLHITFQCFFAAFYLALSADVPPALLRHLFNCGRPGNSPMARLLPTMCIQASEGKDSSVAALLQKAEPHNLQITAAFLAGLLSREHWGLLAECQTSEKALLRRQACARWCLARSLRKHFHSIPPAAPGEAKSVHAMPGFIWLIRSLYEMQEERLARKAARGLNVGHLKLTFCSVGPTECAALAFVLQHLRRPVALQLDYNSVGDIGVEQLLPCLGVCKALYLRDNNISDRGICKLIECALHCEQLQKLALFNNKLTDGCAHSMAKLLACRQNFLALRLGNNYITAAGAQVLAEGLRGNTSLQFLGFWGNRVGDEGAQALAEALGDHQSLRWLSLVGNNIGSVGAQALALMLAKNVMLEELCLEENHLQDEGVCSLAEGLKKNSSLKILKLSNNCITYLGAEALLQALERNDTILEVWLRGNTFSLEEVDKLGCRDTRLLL

Results are given in words; binding and its absence hold for the method and conditions named. In cells and extracts the contact can be indirect. Some entries that bind do so weakly or less than the wild type.

With “C-terminal myc-His-tagged NOD2 (NOD2-myc-His) (from UniProt Q9HC29 1-1040)”, the binding result in assay [1] and in assay [2] was “binds” throughout.

With “N-terminal myc-tagged procaspase-1 (C285A) (Myc-procaspase-1 (C285A)) (from UniProt P29466 1-404) (enzyme)”, the binding entry in assay [3] and in assay [4] was “binds” each time.

The values are drawn from patent US20070111934A1.
